This note sets out measurements from PubChem BioAssay AID2685 (National Center for Advancing Translational Sciences (NCATS), 2010).

Each structure is given as a SMILES string. Some of the results follow. Shown are side measurements of this screen, not its main read-out; they come without a call. Compounds called inactive in the main read-out are mostly missing here. Words in brackets tell the shape of the fitted curve; partial curves, single points and poor fits give uncertain potencies.

The nature of this test: qHTS Assay for Lipid Storage Modulators in Drosophila S3 Cells.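 On cell number change: cells counted by Cell Tracker Red CMTPX staining in the red channel.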 The note with it: BODIPY lipid droplet fluorescence, 18-24 h; for cell number change: measured here: cell count max response, cells fed with added oleic acid. In a few lines: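 Laser-scanning cytometry quantifies lipid droplet accumulation (500–530 nm total intensity; droplet/cell object ratio) in oleic acid-fed (400 uM added) Drosophila S3 cells treated with a concentration series. 20 uM Triacsin C defined 100% inhibition.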
On the technique in general: qHTS replaces the single test concentration by a dilution series.

Where [1] appears, read: measured here: cell number channel AC50, cells fed with added oleic acid.
[2] abbreviates: measured here: lipid fluorescence (Fed channel) AC50, cells fed with added oleic acid.

For `CC1(C)Nc2ccccc2N(Cc2ccc([N+](=O)[O-])cc2)C1=O`, the cell number change amounted to 90.9%. The AC50 (usually the concentration at which the activity in the assay is half-maximal) under setting [1] was 29.1 µM [rising, single point].

In the case of `COc1cccc(N2CCN(c3ccc4nnc(CCC(=O)Nc5ccc(OC)c(OC)c5)n4n3)CC2)c1`, the cell number change came out at 1.49%. Under setting [2], the AC50 is 2.91 µM [falling, full curve].

Regarding `O=C(CCCN1C(=O)c2cccc3cccc(c23)C1=O)N1CCN(c2ccccc2O)CC1`, the AC50 under setting [2] is 29.1 µM [falling, single point].

In the case of `COc1ccc(C)cc1NC(=O)CCCN1C(=O)CN(C)C1=O`, the cell number change was -1.13%. For the same compound, under setting [2], the concentration at half-maximal activity (AC50) is 0.00731 µM [rising, full curve, poor fit].

On to `CC(NC(=O)c1ccco1)c1nc(-c2ccccc2)no1` (configuration not stated), for which the AC50 under setting [2] was 14.6 µM [falling, partial curve].

Consider `COc1cc(C(=O)NCCCCCC(=O)O)cc(OC)c1OC`, for which the cell number change was 0.621%. In addition, the AC50 under setting [2] was 0.651 µM [rising, full curve, poor fit].

For `Cc1nn(-c2ccccc2)c(C)c1C(=O)OCC(=O)N1c2ccccc2NC(=O)C1(C)C`, the cell number change came to 17%. For the same compound, under setting [2], the AC50 is 0.651 µM [falling, full curve].

Take `C=CCn1ncc(OC)c(Cl)c1=O`: the cell number change stood at 1.03%.

For the compound `CC1Sc2ccc(S(=O)(=O)CCC(=O)Nc3cc(F)ccc3F)cc2NC1=O` (configuration not stated), the cell number change is 16.8%. For the same compound, the AC50 under setting [2] is 16.4 µM [rising, partial curve].

For the compound `OCc1ccccc1OCCCOc1cccc2cccnc12`, the cell number change is -13.5%.

On to `Cc1cccc(Nc2nnc(SCC3CCCCO3)s2)c1C` (configuration not stated), for which the cell number change is -21.4%. Besides, the AC50 under setting [2] was 0.0164 µM [falling, full curve, poor fit].

Take `COc1cccc(CN(C)C(=O)CCN=C2NS(=O)(=O)c3ccccc32)c1OC`: the cell number change was 24.4%. The AC50 under setting [2] was 0.82 µM [falling, full curve].

As for `CCO[C@@H]1OC(C(=O)Nc2ccccc2)=C[C@H](C2CC2)[C@H]1CCCO`, the cell number change was -19.2%. For the same compound, under setting [2], the concentration at half-maximal activity (AC50) is 0.0146 µM [falling, full curve].

With `CN(C)c1ccc(C(=O)N2CCCC2)cc1`, the cell number change turned out to be 14.9%. Besides, under setting [2], the AC50 is 16.4 µM [falling, partial curve].

Turning to `O=S(=O)(NCc1ccncc1)c1ccc(Br)s1`, the cell number change was -130%.

`Cn1c(=NC(=O)c2cccc([N+](=O)[O-])c2)sc2ccccc21`: the cell number change stood at 70.6%. In addition, the concentration at half-maximal activity (AC50) under setting [1] was 0.082 µM [rising, partial curve, poor fit]. In addition, the AC50 under setting [2] was 2.31 µM [rising, partial curve, poor fit].

As to `Cc1ccc(NC(=O)c2cc(Cl)ccc2[N+](=O)[O-])cc1C`, the cell number change was 19.7%. Also, the AC50 under setting [1] was 1.3 µM [rising, full curve].

Turning to `Fc1ccc(NC(=S)N/N=C/c2ccc(F)c(F)c2)cc1`, the cell number change turned out to be 39.4%. The AC50 under setting [1] was 4.11 µM [rising, full curve].
